Reference: patent US9969755B2, “Photodynamic therapy photosensitizers” (The Royal Institution for the Advancement of …, priority 2016, dated 2018)
Some results were stated once for a whole list of compounds, not compound by compound. Some compounds share one range, which may span the group rather than tell each member.

Test: Laser flash photolysis: triplet excited state decay and quenching
Assay type: physicochemical
Conditions: T-T absorbance at 430 nm; for triplet quenching by trolox: increasing trolox
Experimental: The 500 mJ/pulse laser output was attenuated yielding 10 mJ laser pulses of 6 ns in duration. Samples were prepared in acetonitrile. The final absorbance of the BODIPY dyes was 0.1. The concentration was kept low to avoid triplet-triplet annihilation. Each sample was de-oxygenated by purging with argon gas for at least 30 min. Quartz cells containing 10×10 mm path length were used. The decay of the BODIPYs was monitored between 420-440 and 520-550 nm (depending the BODIPY) following the laser excitation. Samples were irradiated with a total of 6 laser shots to acquire the temporal evolution of ΔOD.
A second layer of control was subsequently tested via LFP studies, to monitor the extent to which the trap segment deactivates the triplet excited state of the photosensitizes. […] The two quenchers emulate the trap segments utilized in 7 and 8, respectively.

Structure (SMILES)	Quenching rate constants kq of triplet by PMHC [M⁻¹ s⁻¹]	triplet quenching by trolox
CC1=C(I)C(C)=[N+]2C1=C(C)c1c(C)c(I)c(C)n1[B-]2(F)F [Compound 3, 2,6-diiodo-1,3,5,7,8-pentamethyl-pyrromethene fluoroborate]	1e+08 to 4e+08	no quenching was observed
CC(=O)OCC1=C2C(C)=C(Br)C(C)=[N+]2[B-](F)(F)n2c(C)c(Br)c(C)c21 [Compound 6, 8-Acetoxymethyl-2,6-dibromo-1,3,5,7-tetramethyl Pyrromethene Fluoroborate]	1e+08 to 4e+08	no quenching was observed
CC1=C(Br)C(C)=[N+]2C1=C(C)c1c(C)c(Br)c(C)n1[B-]2(F)F [Compound 4, 2,6-dibromo-1,3,5,7,8-pentamethyl-pyrromethene fluoroborate]	1e+08 to 4e+08	no quenching was observed
CC(=O)OCC1=C2C(C)=C(I)C(C)=[N+]2[B-](F)(F)n2c(C)c(I)c(C)c21 [Compound 5, 8-Acetoxymethyl-2,6-diiodo-1,3,5,7-tetramethyl Pyrromethene Fluoroborate]	1e+08 to 4e+08	no quenching was observed
